The exact form of at least one protein or probe is not confirmed. For some assays here: At least one verdict was read from the data and is not stated in words by the source. Where a protein sequence is shown, tags need not be part of it.

Drawing on publication PMC10450190, “RIG-I recognizes metabolite-capped RNAs as signaling ligands”, this text covers binding result and Kd for four sequences.

For data set [1], the target named is T1, RIG-I (UniProt O95786).
T1 sequence (looked up): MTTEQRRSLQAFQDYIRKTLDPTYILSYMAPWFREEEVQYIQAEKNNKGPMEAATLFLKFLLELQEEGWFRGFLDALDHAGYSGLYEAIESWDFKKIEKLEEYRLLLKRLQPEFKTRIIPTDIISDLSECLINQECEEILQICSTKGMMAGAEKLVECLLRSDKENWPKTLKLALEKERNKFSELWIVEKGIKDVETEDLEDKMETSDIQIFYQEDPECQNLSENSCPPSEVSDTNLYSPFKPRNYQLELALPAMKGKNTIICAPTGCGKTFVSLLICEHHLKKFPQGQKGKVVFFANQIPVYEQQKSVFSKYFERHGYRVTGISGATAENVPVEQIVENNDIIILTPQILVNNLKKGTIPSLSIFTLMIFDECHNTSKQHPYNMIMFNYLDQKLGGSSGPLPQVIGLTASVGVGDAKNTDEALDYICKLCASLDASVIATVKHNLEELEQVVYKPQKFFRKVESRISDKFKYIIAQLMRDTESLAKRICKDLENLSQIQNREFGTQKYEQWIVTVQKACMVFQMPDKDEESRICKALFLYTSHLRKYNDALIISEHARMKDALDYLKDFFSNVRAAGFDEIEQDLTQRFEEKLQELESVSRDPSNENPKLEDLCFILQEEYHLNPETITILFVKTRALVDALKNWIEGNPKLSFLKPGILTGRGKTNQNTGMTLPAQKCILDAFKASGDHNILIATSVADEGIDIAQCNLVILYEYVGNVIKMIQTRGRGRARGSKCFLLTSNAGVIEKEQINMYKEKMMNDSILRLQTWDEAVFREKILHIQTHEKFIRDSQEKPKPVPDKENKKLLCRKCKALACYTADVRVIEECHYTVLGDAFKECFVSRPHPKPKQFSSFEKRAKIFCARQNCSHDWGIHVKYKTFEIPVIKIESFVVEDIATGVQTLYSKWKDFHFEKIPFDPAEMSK
Kind of data set: EMSA. The conditions noted are these: 2 mM ATP, dimers and trimers, first 3 nt of strand 2 are DNA (dTdTdT), 50 mM MOPS pH 7.4, 5 mM DTT, 5 mM MgCl2, 0.01% Tween20, 25 C (ATPase, 2 mM ATP), EMSA 4 C with 2 mM ATP, 75 nM RIG-I, 25 nM RNA, recombinant protein, residues 1-925, label: fluorescein on second T of strand 2.

The target in data set [2] is T1, RIG-I. Kind of data set: competition (fluorescence polarization). The conditions noted are these: 0.5 mM ATP, vs labeled 5' PPP ds39; 5' triphosphate on strand 1; 3-nt 5' DNA overhang on strand 2; 50 mM MOPS pH 7.4, 5 mM DTT, 5 mM MgCl2, 0.01% Tween20; 25 C (ATPase, 2 mM ATP; FP, 0.5 mM ATP); EMSA 4 C with 2 mM ATP, 75 nM RIG-I, 25 nM RNA; recombinant protein; residues 1-925.

The target in data set [3] is T1, RIG-I. As to the kind of experiment: RNA-dependent ATPase titration (KD,app). The conditions noted are these: 2 mM ATP, 5 mM Mg2+; 5' dephospho-CoA cap on strand 1; first 3 nt of strand 2 are DNA (dTdTdT); partly disulfide-linked RNA dimer; 50 mM MOPS pH 7.4, 5 mM DTT, 5 mM MgCl2, 0.01% Tween20; 25 C (ATPase, 2 mM ATP); recombinant protein; residues 1-925; label: fluorescein on second T of strand 2.

For “AGUUGGUGGUUGUUGUGUGUUUGUGGUUGGUUUGUUUGG / TTTCCAAACAAACCAACCACAAACACACAACAACCACCAACU [5' FAD ds39]”, the binding result in the data set with RIG-I [1] (5' FAD cap on strand 1) is on record as “binds”. Consider “AGUUGGUGGUUGUUGUGUGUUUGUGGUUGGUUUGUUUGG / TTTCCAAACAAACCAACCACAAACACACAACAACCACCAACU [5' NAD+ ds39]”, for which the binding result with RIG-I [1] (5' NAD+ cap on strand 1) is given as “binds”. Take “AGUUGGUGGUUGUUGUGUGUUUGUGGUUGGUUUGUUUGG / TTTCCAAACAAACCAACCACAAACACACAACAACCACCAACU [5' PPP ds39, unlabeled competitor]”: the binding result with RIG-I [2] is “binds”. With “AGUUGGUGGUUGUUGUGUGUUUGUGGUUGGUUUGUUUGG / TTTCCAAACAAACCAACCACAAACACACAACAACCACCAACU [5' dephospho-CoA ds39]”, the binding result in the data set with RIG-I [1] (5' dephospho-CoA cap on strand 1, partly disulfide-linked RNA dimer) is on record as “binds”. Moreover, in the data set with RIG-I [3], the Kd was found to be 6.4 nM.
